Results of single-concentration screens

Protein sequences, listed by entry. Tags and fused reporters are not part of them. Residues count along the entry.
UniProt Q8IDJ8, 1-583: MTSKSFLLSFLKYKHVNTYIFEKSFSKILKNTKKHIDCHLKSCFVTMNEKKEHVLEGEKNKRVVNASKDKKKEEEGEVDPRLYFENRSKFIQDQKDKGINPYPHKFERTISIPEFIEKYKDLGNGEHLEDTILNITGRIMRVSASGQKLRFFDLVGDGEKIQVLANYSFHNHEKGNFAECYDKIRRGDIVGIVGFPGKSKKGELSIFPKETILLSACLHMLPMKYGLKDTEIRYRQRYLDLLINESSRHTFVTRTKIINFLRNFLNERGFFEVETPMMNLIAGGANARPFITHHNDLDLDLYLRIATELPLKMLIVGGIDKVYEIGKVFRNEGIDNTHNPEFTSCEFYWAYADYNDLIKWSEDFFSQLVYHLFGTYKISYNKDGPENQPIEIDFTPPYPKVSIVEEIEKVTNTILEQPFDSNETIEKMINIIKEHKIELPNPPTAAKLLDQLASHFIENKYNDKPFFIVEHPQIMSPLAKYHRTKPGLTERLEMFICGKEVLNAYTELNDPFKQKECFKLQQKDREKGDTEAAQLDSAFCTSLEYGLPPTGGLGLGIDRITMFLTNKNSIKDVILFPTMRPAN

Measurements from “University of Dundee, Small-Polar-MMV Screening Library” (2021), ChEMBL document CHEMBL3988442.

Results are given as percent effect. The controls that fix the scale are not given in the record; negative values are as filed. Compounds were drawn at random from those tested, without regard to their results.

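Lysine-tRNA ligase, Plasmodium falciparum 3D7 (UniProt Q8IDJ8). Enzyme assay of the cytosolic lysyl-tRNA synthetase in 384-well plates, read by luminescence. Compounds at 30 µM. Higher reads as stronger inhibition, judged from the few compounds that gave an IC50. Of about 69,000 compounds tested this way, about 49 (0.071%) reached 50% or more in at least one test.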

Compound | Percent Effect
Cc1nc2n(n1)CC(NCc1ccccc1OCC(=O)N(C)C)CC2 (stereo not drawn) | 7.418
c1ccc(SCCN2CCCC(Cn3ccnc3)C2)cc1 (stereo not drawn) | 16.94
Cc1cccn2c(=O)cc(OC(=O)c3ccccc3Cl)nc12 | 3.273
c1cc(C2CCCN2CC2CCCCC2)n[nH]1 (stereo not drawn) | -0.8085
Cc1ccc(OC2CCN(C(=O)Cc3c(C)[nH]c(=O)[nH]c3=O)CC2)cc1 | 0.3534
CC(=O)N1CCC(NC(=O)Cc2nc3nc(C)cc(C)n3n2)CC1 | 1.575
CCc1cnc(N)nc1N[C@@H](C)c1ncccc1C | 6.286
CC(C(=O)N(Cc1ccc(C#N)cc1)CC(F)(F)F)S(C)(=O)=O (stereo not drawn) | 3.91
CN(C)c1cc2c(nn1)CCN(C(=O)C1CCCc3ccccc31)C2 (stereo not drawn) | 0.3823
CCOc1ccc(C#N)cc1NCc1cc(C)on1 | 4.009
Cc1noc(C(C)C)c1C(=O)NCCN1CCCCCC1=O | 3.493
CC(C)Nc1ncnc2c1CCN(C(=O)[C@H]1CCCO1)CC2 | -0.5714
Cc1ccnc(N2CCN(Cc3ccccc3)CC(O)C2)c1 (stereo not drawn) | 0.7113
Cn1cc(NC(=O)NCc2ccoc2)ccc1=O | 58.46
CCc1ccc(C(=O)NC2CCc3nc(C)cn3C2)o1 (stereo not drawn) | 0.1218
CNCc1cc(F)ccc1Oc1ccc(Cl)cc1 | 3.123
CC(=O)c1cccc(OCCCC(=O)N(C)Cc2cscn2)c1 | 1.256
CCN1CCN(C(=O)c2ccc(Cn3ccccc3=O)o2)CC1 | 0.8567
O=C(NCCc1nncn1C1CC1)c1cc2ccccn2c1 | 4.253
Cn1cccc1C(=O)N1CC[C@@]2(O)CCN(S(C)(=O)=O)C[C@H]2C1 | 6.647
Fc1ccc2[nH]c(C3CCCN3CCc3ccccn3)nc2c1 (stereo not drawn) | 3.693
O=C1NCCN1C1CCN(Cc2nc(-c3ccsc3)no2)CC1 | -1.044
CN(Cc1ccncc1)C(=O)NCc1cn(-c2ccccc2)nn1 | -0.729
CCn1cc2c(n1)CN(Cc1ccncc1)CC2COCC1CC1 (stereo not drawn) | 0.6792
c1cc(CNCC2CNc3ccnn3C2)cc(OC2CCCCC2)n1 (stereo not drawn) | 4.766
COc1cccc(C(c2c(C)n[nH]c2O)c2c(C)n[nH]c2O)c1OC | 6.092
Cn1ccnc1CN1CCC2(COCCN(Cc3ccsc3)C2)C1 (stereo not drawn) | 4.881
CN(C)C(=O)[C@H]1CC[C@@H]2[C@@H](CCN2Cc2ccccn2)O1 | -1.484
COc1ccc(C(C(=O)O)N2CCC(Cn3cccn3)CC2)cc1F (stereo not drawn) | -0.1449
CC[C@H](C)[C@@H](CO)NC(C)Cc1ccccc1F (stereo partly drawn) | 0.5403
CC(C)(CNc1cn[nH]c(=O)c1Cl)c1ccc2c(c1)OCO2 | -3.728
CN(C)c1ccc(NC(=O)NCC2CCOC2)cn1 (stereo not drawn) | -0.02008
O=S(=O)(Nc1ccc(N2CCOCC2)cn1)c1ccc(F)cc1 | 3.018
c1cncc(CN2CCCn3nnc(COCC4CC4)c3C2)c1 | 3.214
O=C(Cc1ccc2c(c1)OCCCO2)Nc1nnn[nH]1 | -0.3855
Cc1ccc(-c2cccc(CC3(C(=O)O)CCOCC3)c2)c(C)c1 | 7.167
Cn1cc(C(=O)Nc2ccc(CN3CCOCC3)cn2)cn1 | 8.59
CC(=O)NC(c1cc(F)ccc1F)C1CC1 (stereo not drawn) | 3.025
CCN1CCC2(CC1)CC(NC(=O)c1csnn1)c1ccccc1O2 (stereo not drawn) | 3.557
O=C(NCCn1cnc(C2CCCC2)cc1=O)NCc1cccs1 | -1.845
Cc1nc(CN2CCN(c3ccc4nncn4n3)C(C)C2)oc1C (stereo not drawn) | -0.4379
Cc1ncsc1C(=O)NC1CCN(Cc2ccc(C#N)cc2)CC1 | 7.269
O=C(NCCCn1ccnc1)c1cccnc1OCC(F)(F)F | 3.604
O=C(c1cnns1)N1CCN(c2ccc(F)cc2Cl)CC1 | 6.497
Cc1nc(CCC(=O)NC2CCC2)cc(C2CCNCC2)n1 | 0.3932
COc1ccnc(CN2CCCC(CCc3ccccc3)C2)c1OC (stereo not drawn) | 2.921
Cc1n[nH]c(C)c1CCN(C)C(=O)C(c1cccnc1)N1CCOCC1 (stereo not drawn) | 0.07331
Cn1cc(CCC(=O)N2CCCC(n3cncn3)C2)cn1 (stereo not drawn) | 0.8786
CC(C)c1ncc2c(n1)CN(Cc1nc(-c3ccco3)no1)CC2 | 2.976
COc1ccc(C2CCN(Cc3cscn3)CC2)cc1 | 3.289
CCO[C@H]1C[C@@H](O)C12CCN(C1CCN(c3ccccc3)CC1)CC2 | 1.315
CCOCCn1c(=O)n(CCC(C)C)c2ncc(C(=O)O)cc21 | -2.729
CCN(CC)c1ncnc2c(C)nn(CC)c12 | 1.995
Cn1cc(CN2CCCC(CCc3ccc(F)c(F)c3)C2)cn1 (stereo not drawn) | -0.6417
N#Cc1ccc(N2CCN(c3nccs3)CC2)nc1 | -3.799
CC(=O)Nc1ccc(C(=O)N(C)Cc2cccc(F)c2)s1 | 2.97
Cc1n[nH]c(C)c1CNC(=O)NC1CCCN(c2ccccc2F)C1 (stereo not drawn) | 6.537
CC(C)c1nc2c(n1C)CCN(CC(=O)Nc1ccncc1)C2 | 1.49
COc1ccc2c(c1)C(C(=O)NCCN1CCNC1=O)CC(=O)N2 (stereo not drawn) | 1.85
CNC(=O)c1cccc(NC(=O)Cn2nc(-c3cccs3)oc2=O)c1 | -9.99
COc1ccc(NC(=O)CCn2nc(-c3cccs3)oc2=O)cc1OC | 2.168
Cc1ccc(C(=O)NCc2cccnc2N(C)C)s1 | 4.869
COC(=O)CCC(=O)N(Cc1ccc2cc[nH]c2c1)C1CC1 | 2.148
O=S1(=O)C[C@@H]2[C@H](C1)N(Cc1cc(F)cc(Cl)c1)CCN2CCO | 0.7962
CC(=O)CCCC(=O)N(Cc1ccsc1)CC(C)C | 2.157
CCc1ccc(CN(Cc2ccccc2)CC(C)CO)nc1 (stereo not drawn) | -0.7011
CC(O)CN(C)C(=O)CCNC(=O)OC(C)(C)C (stereo not drawn) | 4.214
Cc1cnn(C2CCCN(C(=O)c3ccc(-n4ccnc4)cc3)C2)c1 (stereo not drawn) | 1.254
CN(CC1(CO)CCCC1)[C@@H]1c2ccccc2C2(CCNCC2)[C@H]1O | -5.491
N#Cc1ccccc1C(=O)Nc1cccc(CN2CCC(CO)CC2)c1 | 1.755
NC(=O)C1CCN(CCc2ccc(NCc3cccnc3)cc2)CC1 | 0.6721
Cc1nc(C)n(CC2CN(CCOc3cccc(C#N)c3)CCO2)n1 (stereo not drawn) | 0.1323
Brc1csc(-c2noc(C3COCCO3)n2)c1 (stereo not drawn) | 6.036
O=C(C1CC(F)(F)C1)N1C[C@@H]2CN(Cc3ccsc3)CCO[C@@H]2C1 | 2.6

Once more, the final 5:

* N#Cc1ccccc1C(=O)Nc1cccc(CN2CCC(CO)CC2)c1 | 1.755%
* NC(=O)C1CCN(CCc2ccc(NCc3cccnc3)cc2)CC1 | 0.6721%
* Cc1nc(C)n(CC2CN(CCOc3cccc(C#N)c3)CCO2)n1 (stereo not drawn) | 0.1323%
* Brc1csc(-c2noc(C3COCCO3)n2)c1 (stereo not drawn) | 6.036%
* O=C(C1CC(F)(F)C1)N1C[C@@H]2CN(Cc3ccsc3)CCO[C@@H]2C1 | 2.6%